{"sequences": {"note": "Sequences of proteins named here, by UniProt entry; tags and fusion partners are left off. A change or cut given only in a name is not applied to a line headed by its entry.", "UniProt Q8IL11, whole entry, looked up, stated change not applied": "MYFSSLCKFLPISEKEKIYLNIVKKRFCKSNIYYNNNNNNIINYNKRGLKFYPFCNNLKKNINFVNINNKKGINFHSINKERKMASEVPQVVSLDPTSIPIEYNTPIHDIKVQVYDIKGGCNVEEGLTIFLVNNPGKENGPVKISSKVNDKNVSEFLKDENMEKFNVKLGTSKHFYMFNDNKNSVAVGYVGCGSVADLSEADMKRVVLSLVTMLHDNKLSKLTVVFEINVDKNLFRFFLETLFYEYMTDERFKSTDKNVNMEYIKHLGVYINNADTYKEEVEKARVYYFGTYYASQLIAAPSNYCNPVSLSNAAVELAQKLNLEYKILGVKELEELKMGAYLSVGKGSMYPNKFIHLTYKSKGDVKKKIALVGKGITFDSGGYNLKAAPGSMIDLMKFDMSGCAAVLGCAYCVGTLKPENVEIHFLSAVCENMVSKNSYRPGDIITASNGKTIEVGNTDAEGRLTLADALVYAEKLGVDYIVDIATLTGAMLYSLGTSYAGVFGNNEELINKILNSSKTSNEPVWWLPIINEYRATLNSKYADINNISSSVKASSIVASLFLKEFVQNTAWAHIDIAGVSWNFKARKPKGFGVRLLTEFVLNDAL"}, "source": "paper doi:10.1101/244665", "about": "(bioRxiv, 2019)", "target": "PfA-M17(W525A+Y533A) (Plasmodium falciparum) (UniProt Q8IL11)", "experiment": "AUC", "note": "No constants are given. Whether binding was seen depends on the method and setting."}
{"substance": "PfA-M17(W525A+Y533A) (from UniProt Q8IL11 85-605) (enzyme)", "values": [{"measurement": "binding", "value": "no binding (tested: 0.5 mg/ml)"}]}
